Results are given in words; binding and its absence hold for the method and conditions named. Binding seen in cells or lysates may run through a third protein. Here binding means that the protein was enriched with, or labelled near, the bait; the list need not be complete. Tags and fused reporters may be left off the sequences shown.
T1: mCLCC1-StrepTagII-FLAG-StrepTagII (mouse) (UniProt Q99LI2)
T1 sequence: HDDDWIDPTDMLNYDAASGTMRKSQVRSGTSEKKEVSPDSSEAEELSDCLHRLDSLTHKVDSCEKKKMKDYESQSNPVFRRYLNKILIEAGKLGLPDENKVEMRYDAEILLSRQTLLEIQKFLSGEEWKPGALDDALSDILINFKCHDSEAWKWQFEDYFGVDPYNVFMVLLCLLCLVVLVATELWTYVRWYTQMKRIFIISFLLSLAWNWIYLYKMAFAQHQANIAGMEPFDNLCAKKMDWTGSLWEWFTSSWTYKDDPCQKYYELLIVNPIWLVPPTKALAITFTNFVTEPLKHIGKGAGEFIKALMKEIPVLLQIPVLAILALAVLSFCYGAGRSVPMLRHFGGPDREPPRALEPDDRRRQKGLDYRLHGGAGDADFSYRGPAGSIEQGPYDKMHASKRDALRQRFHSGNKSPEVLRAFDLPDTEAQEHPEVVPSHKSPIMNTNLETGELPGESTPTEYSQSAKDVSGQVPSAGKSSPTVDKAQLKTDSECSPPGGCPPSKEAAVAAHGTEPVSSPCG

B1: TorsinA (endogenous, mouse liver) (protein, UniProt Q9ER39 21-333)
chain: VEPISLSLALAGVLTTYISYPRLYCLFAECCGQMRSLSREALQKDLDNKLFGQHLAKKVILNAVSGFLSNPKPKKPLTLSLHGWTGTGKNFASKIIAENIYEGGLNSDYVHLFVATLHFPHASNITQYKDQLQMWIRGNVSACARSIFIFDEMDKMHAGLIDAIKPFLDYYDVVDEVSYQKAIFIFLSNAGAERITDVALDFWKSGKQREEIKLRDMEPALAVSVFNNKNSGFWHSSLIDRNLIDYFVPFLPLEYKHLKMCIRVEMQSRGYEVDEDIISKVAEEMTFFPKEEKVFSDKGCKTVFTKLDYYLDD
B2: TorsinB (endogenous, mouse liver) (protein, UniProt Q9ER41 25-336)
chain: FEPVSVGIAIGAVSALTGYLSYTDFYCRFTECCHEERPLNTSALKLDLEEKLFGQHLATEVILKALTGFRNNKNSKKPLTLSLHGWAGTGKNFISQIVAENLYPKGLKSNFVHLFVSTLHFPHEQKIKVYQDQLQKWIRGNVSACGSSVFIFDEMDKLHPGIIDAIKPFLDYYEQVDGISYRRAIFIFLSNAGGDLITKTALDFWRAGRKREEIQLKDLEPVLSVGVFNNKHSGLWHSGLIDKNLIDYFIPFLPLEYKHVKMCVRAEMRARGAAVDEDVVTSVADEMTFFPKDEKIYSDKGCKTVQSRLDFH

Biological target: T1, mCLCC1-StrepTagII-FLAG-StrepTagII (mouse)
Experiment: affinity purification with mass spectrometry

Binder | binding
B1 | binds
B2 | binds

From paper doi:10.64898/2025.12.14.694184 (bioRxiv, 2025)
